Measurements: PMC10127389
No constants are given. Whether binding was seen depends on the method and setting. Binding seen in cells or lysates may run through a third protein. Sequences can lack the tags named with a protein.

The chains behind the UniProt entries cited, without tags or fusion partners.
UniProt P38543: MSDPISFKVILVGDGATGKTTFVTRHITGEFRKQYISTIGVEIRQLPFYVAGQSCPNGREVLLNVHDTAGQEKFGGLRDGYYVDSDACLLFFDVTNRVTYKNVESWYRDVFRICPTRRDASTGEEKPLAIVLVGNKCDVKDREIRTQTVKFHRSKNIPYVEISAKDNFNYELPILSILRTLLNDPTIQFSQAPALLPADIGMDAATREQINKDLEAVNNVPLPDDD

Target: T1, human MLF2 (human myeloid leukemia factor 2), HA-tagged, expressed from pPhMLF2 in G. lamblia (human) (UniProt Q15773)
T1 sequence: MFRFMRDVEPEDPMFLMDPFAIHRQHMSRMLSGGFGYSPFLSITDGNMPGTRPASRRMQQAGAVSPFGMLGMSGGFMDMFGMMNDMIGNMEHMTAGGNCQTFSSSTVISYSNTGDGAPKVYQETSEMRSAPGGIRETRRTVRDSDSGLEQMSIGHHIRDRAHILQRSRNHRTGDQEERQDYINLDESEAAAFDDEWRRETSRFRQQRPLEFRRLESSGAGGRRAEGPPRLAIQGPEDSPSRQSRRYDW
Assay: co-IP; lysates of pPhMLF2 stable transfectants of G. lamblia in growth medium; precipitated with anti-HA antibody conjugated to beads; Western blot with anti-HA, anti-MLF and anti-RAN; 5'Δ5N-Pac cell line as control

Giardia lamblia RAN, endogenous (from UniProt P38543 1-226)
binding: no binding
